Data as given in PubChem BioAssay AID504774 (Drosophila RNAi Screening Center, 2011)

- Assay: 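Knock-downs that shift viability of MMS-exposed cells relative to untreated ones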 (primary screen)
- Cells: Drosophila Kc167 cells
- Knock-down reagent: long dsRNA against Drosophila genes, about 0.25 µg dsRNA per well
- Time to read-out: about 6 days: 3 days knock-down, then 3 days with or without MMS
- Challenge: methyl methanesulphonate 0.004% (w/v) for 3 days after knock-down
- Measurement: 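ATP-dependent luminescence as a measure of live cells in MMS-exposed wells, quantile normalised within each plate, with replicate values also given as a mean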
- Direction: mean viability with MMS and viability with MMS: higher = more surviving cells after MMS
The deposit covers about 23,000 reagents; below is an unselected part of those that have a named target and a result. 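Values are quantile-normalised luminescence on an arbitrary scale; higher means more cells surviving MMS.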 The numbers tell different reagents against one gene apart. Names joined by + are all predicted targets of the reagent. Not all columns of the deposit are shown.

no.	gene	dsRNA no.	mean viability with MMS	viability with MMS, replicate 1
1	CG4318	1	3.45e6	3.91e6
2	yuri	1	3.44e6	3.88e6
3	yuri	2	3.40e6	3.82e6
4	yuri	3	3.57e6	3.94e6
5	yuri	4	3.61e6	4.09e6
6	CG15861	1	3.48e6	3.87e6
7	CG13220	1	3.62e6	4.20e6
8	CG11889 + CG11891	1	3.65e6	4.14e6
9	CG11889 + CG11891	2	3.49e6	3.98e6
10	CG7275	1	3.47e6	3.91e6
11	Sgs1	1	3.64e6	4.10e6
12	Sgs1	2	3.37e6	3.85e6
13	CG6511	1	3.52e6	4.05e6
14	par-6	1	3.67e6	4.31e6
15	slam	1	3.42e6	4.08e6
16	RpL31	1	2.93e6	3.60e6
17	Tango8	1	3.19e6	3.86e6
18	CG45105	1	3.25e6	3.70e6
19	CG45105	2	3.26e6	3.74e6
20	Uba5	1	3.60e6	4.05e6
21	CG8726	1	3.82e6	4.28e6
22	Nep7	1	3.51e6	4.05e6
23	Ssl1	1	3.31e6	3.75e6
24	Drep1	1	3.52e6	3.98e6
25	stwl	1	3.25e6	3.66e6
26	CG16789	1	3.67e6	4.15e6
27	ATPsyngamma	1	3.37e6	3.74e6

The list goes on; the last 6 above are carried over.
no.	gene	dsRNA no.	mean viability with MMS	viability with MMS, replicate 1
22	Nep7	1	3.51e6	4.05e6
23	Ssl1	1	3.31e6	3.75e6
24	Drep1	1	3.52e6	3.98e6
25	stwl	1	3.25e6	3.66e6
26	CG16789	1	3.67e6	4.15e6
27	ATPsyngamma	1	3.37e6	3.74e6
28	p38a	1	3.74e6	4.18e6
29	Spn42Dd	1	3.53e6	4.06e6
30	Spn42Dd	2	3.69e6	4.19e6
31	Sb	1	3.45e6	3.92e6
32	CG4374	1	3.51e6	3.92e6
33	unpg	1	3.63e6	4.11e6
34	CG2750	1	3.73e6	4.08e6
35	Or2a	1	3.33e6	3.66e6
36	CG4282	1	3.61e6	4.17e6
37	CG3045	1	3.66e6	4.25e6
38	obst-F	1	3.34e6	3.74e6
39	CG13084	1	3.56e6	3.94e6
40	Tsp42Eh	1	3.61e6	4.13e6
41	DCP2	1	3.46e6	3.90e6
42	CG1971	1	3.55e6	4.21e6
43	CG18258	1	3.39e6	3.75e6
44	CG31156	1	3.54e6	4.06e6
45	CG31156	2	3.39e6	3.84e6
46	CG15024	1	3.63e6	4.14e6
